This is one part of the list.
compound: Cn1cc(CNCC2CCN(c3ncc(C(=O)NO)cn3)CC2)c2ccccc21 [quisinostat]; test: log2 fold change, soluble protein after heating vs DMSO (PISA); higher = thermal stabilisation; K562 lysate, 10 uM; active = over 0.2 and 3.5 SD of the protein, either way, in both replicates (recomputed)
In short: (§1)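 Log-two fold change in thermal stability relative to solvent controls is reported from duplicates. For each sample, crude K562 extract from dounce-homogenised pellets in PBS pH 7.4 with 1 mM MgCl2, at 1 mg/mL protein, was treated with 10 μM compound for 30 min. Aliquots heated for 3 min across 48°C-58°C were pooled, brought to 0.5% NP-40 at 4°C and cleared at 21,000xg for 90 min. The supernatant was quantified by TMTpro 16plex LC-MS/MS with channel sums equalised.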

Amino acid sequences for entries named in this document (tags omitted). A change or cut given only in a name is not applied to a line headed by its entry.
UniProt P49257: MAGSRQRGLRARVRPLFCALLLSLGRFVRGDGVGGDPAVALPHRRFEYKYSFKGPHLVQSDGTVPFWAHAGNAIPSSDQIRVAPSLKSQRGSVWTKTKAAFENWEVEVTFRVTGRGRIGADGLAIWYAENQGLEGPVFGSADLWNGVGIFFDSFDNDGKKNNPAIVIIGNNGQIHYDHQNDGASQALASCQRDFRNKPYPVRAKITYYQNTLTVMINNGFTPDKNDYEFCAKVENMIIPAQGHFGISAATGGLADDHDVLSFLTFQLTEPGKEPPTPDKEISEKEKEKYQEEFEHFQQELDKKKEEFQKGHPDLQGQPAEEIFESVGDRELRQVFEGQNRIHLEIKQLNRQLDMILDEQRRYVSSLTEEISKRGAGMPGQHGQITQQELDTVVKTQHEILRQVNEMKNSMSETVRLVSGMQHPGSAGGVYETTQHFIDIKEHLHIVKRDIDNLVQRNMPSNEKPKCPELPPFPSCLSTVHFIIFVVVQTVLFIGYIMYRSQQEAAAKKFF
UniProt Q9Y333: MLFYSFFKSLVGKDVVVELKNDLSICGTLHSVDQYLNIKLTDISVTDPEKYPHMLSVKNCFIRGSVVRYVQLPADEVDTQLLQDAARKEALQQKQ
UniProt Q8NG48: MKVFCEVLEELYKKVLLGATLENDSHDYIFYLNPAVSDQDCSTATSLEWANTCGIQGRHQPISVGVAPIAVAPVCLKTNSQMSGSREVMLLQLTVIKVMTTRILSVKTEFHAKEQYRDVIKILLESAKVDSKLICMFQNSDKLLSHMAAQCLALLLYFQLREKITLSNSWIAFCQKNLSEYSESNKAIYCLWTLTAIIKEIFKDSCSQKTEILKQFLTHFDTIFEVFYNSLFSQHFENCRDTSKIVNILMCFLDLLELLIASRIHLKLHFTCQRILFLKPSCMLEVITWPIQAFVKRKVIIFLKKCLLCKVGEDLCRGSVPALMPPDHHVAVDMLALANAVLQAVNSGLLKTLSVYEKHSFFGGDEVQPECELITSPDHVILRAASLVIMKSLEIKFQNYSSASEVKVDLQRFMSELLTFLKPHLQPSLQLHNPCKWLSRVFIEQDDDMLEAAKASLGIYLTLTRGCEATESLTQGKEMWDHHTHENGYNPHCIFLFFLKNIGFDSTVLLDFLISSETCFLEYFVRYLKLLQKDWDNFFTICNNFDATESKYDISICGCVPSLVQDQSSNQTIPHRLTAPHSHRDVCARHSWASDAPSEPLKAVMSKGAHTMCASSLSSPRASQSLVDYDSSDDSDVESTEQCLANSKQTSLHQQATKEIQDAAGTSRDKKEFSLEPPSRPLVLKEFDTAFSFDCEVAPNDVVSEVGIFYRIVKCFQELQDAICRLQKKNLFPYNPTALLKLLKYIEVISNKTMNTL
UniProt Q5TKA1: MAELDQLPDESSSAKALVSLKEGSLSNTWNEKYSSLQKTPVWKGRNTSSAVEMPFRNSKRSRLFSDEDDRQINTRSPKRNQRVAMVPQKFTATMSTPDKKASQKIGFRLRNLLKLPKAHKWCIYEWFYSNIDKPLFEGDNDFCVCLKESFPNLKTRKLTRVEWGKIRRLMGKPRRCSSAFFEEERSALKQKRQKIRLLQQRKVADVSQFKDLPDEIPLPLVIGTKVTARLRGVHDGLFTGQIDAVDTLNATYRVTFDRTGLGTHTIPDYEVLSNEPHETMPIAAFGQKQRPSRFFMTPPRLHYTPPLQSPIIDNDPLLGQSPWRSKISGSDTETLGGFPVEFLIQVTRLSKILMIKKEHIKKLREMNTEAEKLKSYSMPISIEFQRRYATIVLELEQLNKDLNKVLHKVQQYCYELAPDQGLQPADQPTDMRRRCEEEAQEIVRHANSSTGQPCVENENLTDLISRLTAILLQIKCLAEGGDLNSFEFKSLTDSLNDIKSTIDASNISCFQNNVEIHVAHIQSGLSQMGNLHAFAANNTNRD
UniProt Q9C0E8: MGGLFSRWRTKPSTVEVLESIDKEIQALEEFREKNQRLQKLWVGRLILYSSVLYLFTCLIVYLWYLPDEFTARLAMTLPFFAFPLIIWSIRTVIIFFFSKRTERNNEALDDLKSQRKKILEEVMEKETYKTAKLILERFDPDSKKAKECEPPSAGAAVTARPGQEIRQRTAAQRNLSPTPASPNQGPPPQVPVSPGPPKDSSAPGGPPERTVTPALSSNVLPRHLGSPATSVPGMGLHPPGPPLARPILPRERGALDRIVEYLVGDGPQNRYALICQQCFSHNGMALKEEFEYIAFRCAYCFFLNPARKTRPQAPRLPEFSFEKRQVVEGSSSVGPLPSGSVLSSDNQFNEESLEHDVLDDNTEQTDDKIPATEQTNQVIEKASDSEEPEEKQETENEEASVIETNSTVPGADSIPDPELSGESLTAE
UniProt Q6P1Q0: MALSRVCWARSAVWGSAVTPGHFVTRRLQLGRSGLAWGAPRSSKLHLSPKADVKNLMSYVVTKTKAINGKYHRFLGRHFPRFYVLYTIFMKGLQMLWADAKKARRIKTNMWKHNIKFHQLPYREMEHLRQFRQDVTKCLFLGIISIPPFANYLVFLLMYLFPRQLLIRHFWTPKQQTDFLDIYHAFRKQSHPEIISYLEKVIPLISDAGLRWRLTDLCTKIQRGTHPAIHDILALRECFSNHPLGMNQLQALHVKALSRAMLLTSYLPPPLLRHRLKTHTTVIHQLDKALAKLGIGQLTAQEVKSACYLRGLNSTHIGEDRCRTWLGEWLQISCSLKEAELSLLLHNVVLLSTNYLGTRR
UniProt Q03252: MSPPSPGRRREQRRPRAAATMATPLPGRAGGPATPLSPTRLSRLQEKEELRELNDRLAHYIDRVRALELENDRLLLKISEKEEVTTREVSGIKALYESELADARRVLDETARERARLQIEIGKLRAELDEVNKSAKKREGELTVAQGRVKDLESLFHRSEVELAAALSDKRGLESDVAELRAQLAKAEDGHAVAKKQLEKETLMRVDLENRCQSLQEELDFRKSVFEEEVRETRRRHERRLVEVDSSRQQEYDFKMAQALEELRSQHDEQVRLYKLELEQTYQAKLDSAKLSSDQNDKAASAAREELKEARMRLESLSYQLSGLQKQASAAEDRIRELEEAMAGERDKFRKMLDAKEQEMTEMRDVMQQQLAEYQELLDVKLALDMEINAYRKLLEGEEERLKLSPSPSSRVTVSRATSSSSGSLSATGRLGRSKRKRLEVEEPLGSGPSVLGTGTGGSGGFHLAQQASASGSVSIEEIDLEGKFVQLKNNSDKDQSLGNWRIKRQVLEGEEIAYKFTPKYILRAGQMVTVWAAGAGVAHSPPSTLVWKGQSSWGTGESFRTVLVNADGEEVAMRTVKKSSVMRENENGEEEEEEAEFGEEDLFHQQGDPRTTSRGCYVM
UniProt Q6P9F7: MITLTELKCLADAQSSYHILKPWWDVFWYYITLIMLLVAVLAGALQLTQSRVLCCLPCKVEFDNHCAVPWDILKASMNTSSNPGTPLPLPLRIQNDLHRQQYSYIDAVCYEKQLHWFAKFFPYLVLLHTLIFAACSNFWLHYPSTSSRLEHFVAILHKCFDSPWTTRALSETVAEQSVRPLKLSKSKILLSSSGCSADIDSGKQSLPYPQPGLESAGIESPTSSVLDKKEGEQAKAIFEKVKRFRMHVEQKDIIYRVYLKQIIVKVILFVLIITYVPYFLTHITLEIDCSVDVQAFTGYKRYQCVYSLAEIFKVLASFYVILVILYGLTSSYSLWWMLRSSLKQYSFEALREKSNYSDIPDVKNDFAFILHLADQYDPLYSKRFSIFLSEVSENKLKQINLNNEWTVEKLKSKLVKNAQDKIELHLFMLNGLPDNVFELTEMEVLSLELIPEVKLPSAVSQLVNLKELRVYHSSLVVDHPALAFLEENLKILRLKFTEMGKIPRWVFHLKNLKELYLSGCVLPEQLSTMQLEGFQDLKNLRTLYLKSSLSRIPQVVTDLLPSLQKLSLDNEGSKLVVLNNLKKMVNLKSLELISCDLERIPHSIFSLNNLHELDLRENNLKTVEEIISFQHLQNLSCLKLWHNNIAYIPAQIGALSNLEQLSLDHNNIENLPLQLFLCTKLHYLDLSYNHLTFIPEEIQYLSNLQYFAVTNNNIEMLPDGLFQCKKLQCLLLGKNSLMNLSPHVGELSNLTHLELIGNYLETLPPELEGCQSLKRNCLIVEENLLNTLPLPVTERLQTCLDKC
UniProt P25791: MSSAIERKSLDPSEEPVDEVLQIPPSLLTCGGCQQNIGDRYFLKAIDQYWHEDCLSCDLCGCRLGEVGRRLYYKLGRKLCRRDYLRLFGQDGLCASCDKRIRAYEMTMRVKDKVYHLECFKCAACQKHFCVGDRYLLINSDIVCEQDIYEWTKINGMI
UniProt Q8TDW0: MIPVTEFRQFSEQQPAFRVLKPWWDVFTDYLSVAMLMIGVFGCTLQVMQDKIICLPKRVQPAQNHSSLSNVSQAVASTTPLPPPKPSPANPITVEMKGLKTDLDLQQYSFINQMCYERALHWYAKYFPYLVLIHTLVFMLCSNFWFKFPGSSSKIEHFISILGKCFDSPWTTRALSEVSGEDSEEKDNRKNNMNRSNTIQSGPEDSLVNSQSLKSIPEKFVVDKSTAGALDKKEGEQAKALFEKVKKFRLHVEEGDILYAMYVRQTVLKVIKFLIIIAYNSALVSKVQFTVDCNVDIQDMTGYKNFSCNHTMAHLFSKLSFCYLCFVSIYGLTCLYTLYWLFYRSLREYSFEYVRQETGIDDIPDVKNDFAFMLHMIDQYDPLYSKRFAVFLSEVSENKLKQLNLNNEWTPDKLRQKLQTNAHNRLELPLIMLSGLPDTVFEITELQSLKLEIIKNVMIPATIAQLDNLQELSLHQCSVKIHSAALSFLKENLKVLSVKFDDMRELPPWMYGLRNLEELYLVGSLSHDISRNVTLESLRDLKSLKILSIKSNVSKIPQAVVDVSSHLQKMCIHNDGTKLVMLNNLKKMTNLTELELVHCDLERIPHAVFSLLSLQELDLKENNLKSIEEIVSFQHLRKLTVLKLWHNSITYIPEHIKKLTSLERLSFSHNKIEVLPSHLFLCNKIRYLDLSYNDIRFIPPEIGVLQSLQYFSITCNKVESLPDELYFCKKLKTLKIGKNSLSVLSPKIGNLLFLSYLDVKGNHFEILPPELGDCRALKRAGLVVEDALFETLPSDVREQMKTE
UniProt Q9H0V9: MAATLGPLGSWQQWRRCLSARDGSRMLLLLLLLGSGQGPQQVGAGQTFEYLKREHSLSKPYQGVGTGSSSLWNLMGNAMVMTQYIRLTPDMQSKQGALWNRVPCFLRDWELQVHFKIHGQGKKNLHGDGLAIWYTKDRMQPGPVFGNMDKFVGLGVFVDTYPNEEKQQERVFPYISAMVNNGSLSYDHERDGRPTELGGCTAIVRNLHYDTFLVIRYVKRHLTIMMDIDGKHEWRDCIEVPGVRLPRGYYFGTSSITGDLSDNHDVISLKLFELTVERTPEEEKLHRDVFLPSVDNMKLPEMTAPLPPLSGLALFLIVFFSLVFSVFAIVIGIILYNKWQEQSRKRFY
UniProt Q9BX40: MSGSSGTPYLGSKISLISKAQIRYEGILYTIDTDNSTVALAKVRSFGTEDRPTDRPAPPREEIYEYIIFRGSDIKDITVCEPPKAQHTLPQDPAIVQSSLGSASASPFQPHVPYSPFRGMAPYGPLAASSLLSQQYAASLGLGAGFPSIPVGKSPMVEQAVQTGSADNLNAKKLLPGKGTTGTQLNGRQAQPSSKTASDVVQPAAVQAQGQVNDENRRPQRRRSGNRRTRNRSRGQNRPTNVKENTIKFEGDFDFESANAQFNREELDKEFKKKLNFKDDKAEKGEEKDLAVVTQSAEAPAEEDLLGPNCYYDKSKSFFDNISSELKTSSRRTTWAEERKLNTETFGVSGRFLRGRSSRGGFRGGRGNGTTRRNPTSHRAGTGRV
UniProt Q9UGP4: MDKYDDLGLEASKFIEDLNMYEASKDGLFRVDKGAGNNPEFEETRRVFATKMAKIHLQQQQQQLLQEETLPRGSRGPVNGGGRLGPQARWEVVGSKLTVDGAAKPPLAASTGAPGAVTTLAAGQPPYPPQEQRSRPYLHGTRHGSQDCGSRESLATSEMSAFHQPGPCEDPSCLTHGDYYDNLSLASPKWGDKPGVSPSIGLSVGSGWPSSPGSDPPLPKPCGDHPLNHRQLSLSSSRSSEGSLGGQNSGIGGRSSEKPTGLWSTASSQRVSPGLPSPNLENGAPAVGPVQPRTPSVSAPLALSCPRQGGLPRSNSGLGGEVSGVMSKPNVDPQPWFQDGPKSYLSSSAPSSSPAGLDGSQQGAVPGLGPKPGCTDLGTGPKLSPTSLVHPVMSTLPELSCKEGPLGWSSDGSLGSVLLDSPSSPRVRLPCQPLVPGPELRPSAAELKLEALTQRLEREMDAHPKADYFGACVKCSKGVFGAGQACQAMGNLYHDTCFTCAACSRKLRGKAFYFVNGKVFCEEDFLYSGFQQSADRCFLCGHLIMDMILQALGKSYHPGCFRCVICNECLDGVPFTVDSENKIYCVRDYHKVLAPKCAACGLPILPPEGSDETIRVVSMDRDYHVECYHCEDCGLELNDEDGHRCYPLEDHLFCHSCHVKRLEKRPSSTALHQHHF

Row | Target | log2 fold change
1 | LIN7C (UniProt Q9NUP9) | inactive: -0.026
2 | LRRC8D (UniProt Q7L1W4) | inactive: 0
3 | LIMA1 isoform 4 (UniProt Q9UHB6) | inactive: 0.011
4 | LRRC57 (UniProt Q8N9N7) | inactive: -0.023
5 | LMAN1 (UniProt P49257) | inactive: -0.043
6 | LMNB1 (UniProt P20700) | inactive: -0.03
7 | LSM2 (UniProt Q9Y333) | inactive: -0.055
8 | LINS1 (UniProt Q8NG48) | inactive: -0.076
9 | LIG1 (UniProt P18858) | inactive: -0.017
10 | LMBRD1 (UniProt Q9NUN5) | inactive: 0.028
11 | LRRCC1 (UniProt Q9C099) | inactive: -0.322
12 | LRCH3 (UniProt Q96II8) | inactive: -0.16
13 | LIG4 (UniProt P49917) | inactive: -0.085
14 | LRRC59 (UniProt Q96AG4) | inactive: 0.058
15 | LSR (UniProt Q86X29) | inactive: 0.013
16 | LIN9 isoform 2 (UniProt Q5TKA1) | inactive: -0.03
17 | LNPK (UniProt Q9C0E8) | inactive: -0.033

compound: Cn1cncc1[C@@](N)(c1ccc(Cl)cc1)c1ccc2c(c1)c(-c1cccc(Cl)c1)cc(=O)n2C [tipifarnib]; test: as above
In short: as §1

Row | Target | log2 fold change
18 | LRPPRC (UniProt P42704) | inactive: -0.027
19 | LETMD1 isoform 7 (UniProt Q6P1Q0) | inactive: -0.06
20 | LARS2 (UniProt Q15031) | inactive: -0.085
21 | LMNB2 (UniProt Q03252) | inactive: -0.068
22 | LCLAT1 (UniProt Q6UWP7) | inactive: -0.067
23 | LEO1 (UniProt Q8WVC0) | inactive: 0.004
24 | LCMT2 (UniProt O60294) | inactive: 0.118
25 | LRRC8B (UniProt Q6P9F7) | inactive: -0.069
26 | LCMT1 (UniProt Q9UIC8) | inactive: 0.014
27 | LRBA, A0A494BZW2 | inactive: 0.041
28 | LMO2 isoform 3 (UniProt P25791) | inactive: 0
29 | LRRC8C (UniProt Q8TDW0) | inactive: 0.275
30 | LDAH isoform 2 (UniProt Q9H6V9) | inactive: -0.077
31 | LMAN2L isoform 2 (UniProt Q9H0V9) | inactive: -0.059
32 | LRCH4 (UniProt O75427) | inactive: -0.254
33 | LCP2 (UniProt Q13094) | inactive: 0.007
34 | LAS1L (UniProt Q9Y4W2) | inactive: -0.013
35 | LRWD1 (UniProt Q9UFC0) | inactive: 0.007
36 | LSM14B isoform 2 (UniProt Q9BX40) | inactive: -0.054
37 | LGALS8 isoform 2 (UniProt O00214) | inactive: -0.007

Row | Target | log2 fold change
38 | LIMD1 (UniProt Q9UGP4) | inactive: -0.032
39 | LDHA isoform 3 (UniProt P00338) | inactive: 0.022
40 | LIN7C (UniProt Q9NUP9) | inactive: 0.028
41 | LRRC8D (UniProt Q7L1W4) | inactive: -0.005
42 | LIMA1 isoform 4 (UniProt Q9UHB6) | inactive: 0.018
43 | LRRC57 (UniProt Q8N9N7) | inactive: 0.002
44 | LMAN1 (UniProt P49257) | inactive: -0.072
45 | LMNB1 (UniProt P20700) | inactive: -0.03
46 | LSM2 (UniProt Q9Y333) | inactive: 0.049
47 | LINS1 (UniProt Q8NG48) | inactive: 0.087
48 | LIG1 (UniProt P18858) | inactive: 0.001
49 | LMBRD1 (UniProt Q9NUN5) | inactive: -0.004
50 | LRRCC1 (UniProt Q9C099) | inactive: -0.092
51 | LRCH3 (UniProt Q96II8) | inactive: -0.029
52 | LIG4 (UniProt P49917) | inactive: 0.038
53 | LRRC59 (UniProt Q96AG4) | inactive: -0.008
54 | LSR (UniProt Q86X29) | inactive: -0.04
55 | LIN9 isoform 2 (UniProt Q5TKA1) | inactive: -0.006
56 | LNPK (UniProt Q9C0E8) | inactive: -0.053

Source: the supplement of paper PMC10849652
